Results taken from article PMC12278352, “Characterization of DnaB–DnaG Interaction in M. tuberculosis Using Small‐Angle X‐ray Scattering‐Based Dissociation Assay” (Chembiochem, 2025).
Results are given in words; binding and its absence hold for the method and conditions named.

Biological target: primase domain of gene 4 protein (gp4) from bacteriophage T7 (residues 1–271) (bacteriophage T7) (UniProt P03692)
Experiment: condition: only in the absence of ATP/CTP, RNA, and Mg2+ (2, 4 and 8 mg/mL); SAXS; T7 primase alone, without ATP/CTP, RNA and Mg2+, at 2, 4 and 8 mg/mL; 20 mM Tris-HCl pH 7.5, 1 mM DTT; 4 °C; Rg against protein concentration; both purified

B1: primase domain of gene 4 protein (gp4) from bacteriophage T7 (residues 1–271) (domain or fragment, UniProt P03692 1-271, looked up)
chain: MDNSHDSDSVFLYHIPCDNCGSSDGNSLFSDGHTFCYVCEKWTAGNEDTKERASKRKPSGGKPMTYNVWNFGESNGRYSALTARGISKETCQKAGYWIAKVDGVMYQVADYRDQNGNIVSQKVRDKDKNFKTTGSHKSDALFGKHLWNGGKKIVVTEGEIDMLTVMELQDCKYPVVSLGHGASAAKKTCAANYEYFDQFEQIILMFDMDEAGRKAVEEAAQVLPAGKVRVAVLPCKDANECHLNGHDREIMEQVWNAGPWIPDGVVSALSL
notes: primase domain of gene 4 protein (gp4), bacteriophage T7, residues 1-271; For the NMR spectra the protein was 15N-labelled and deuterated; Monomer without cofactors, dimer with ATP/CTP, RNA and Mg2+; also called T7 primase; T7 DNA primase
In the case of B1, the binding is reported as “no binding”.
